Literature values as cited in article PMC3534288 (BMC Biophysics, 2012).

Target: mCA XIII
Conditions: read-out: observed Ki; murine isozyme mCA XIII; cited from earlier work

## CC(=O)Nc1nnc(S(N)(=O)=O)s1 [AZM, acetazolamide]
  Ki: 17 nM
